The values that follow come from publication PMC3520120.

Results are given in words; binding and its absence hold for the method and conditions named. In cells and extracts the contact can be indirect. Some binding calls cover weakened binding; strength is not graded here. Tags and fused reporters may be left off the sequences shown.

The target in assay [1] is T1, FLAG-tagged LRP10^ΔED (LRP10 lacking the extracellular domain) (human) (UniProt Q7Z4F1).
T1 sequence: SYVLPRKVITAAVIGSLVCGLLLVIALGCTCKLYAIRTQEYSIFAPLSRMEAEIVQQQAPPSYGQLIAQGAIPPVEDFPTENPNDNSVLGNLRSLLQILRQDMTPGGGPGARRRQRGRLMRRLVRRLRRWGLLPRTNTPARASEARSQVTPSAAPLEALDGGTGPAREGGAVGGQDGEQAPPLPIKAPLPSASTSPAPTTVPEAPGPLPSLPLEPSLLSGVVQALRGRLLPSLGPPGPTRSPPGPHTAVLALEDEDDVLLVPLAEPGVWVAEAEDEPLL
As to the kind of experiment: co-IP; lysates of transfected HEK cells (both partners co-expressed, or LRP10-HA alone with endogenous APP); 50 mM Tris pH 7.4, 150 mM NaCl, 1% NP-40; precipitation with anti-HA, anti-APP or anti-FLAG overnight at 4°C, protein A- or G-Sepharose; immunoblot. (Immunoblotting shows a protein as a band on a membrane.)

Assay [2] has as its target T2, FLAG-tagged LRP10^ΔCD (LRP10 lacking the cytoplasmic domain) (human) (UniProt Q7Z4F1).
T2 sequence: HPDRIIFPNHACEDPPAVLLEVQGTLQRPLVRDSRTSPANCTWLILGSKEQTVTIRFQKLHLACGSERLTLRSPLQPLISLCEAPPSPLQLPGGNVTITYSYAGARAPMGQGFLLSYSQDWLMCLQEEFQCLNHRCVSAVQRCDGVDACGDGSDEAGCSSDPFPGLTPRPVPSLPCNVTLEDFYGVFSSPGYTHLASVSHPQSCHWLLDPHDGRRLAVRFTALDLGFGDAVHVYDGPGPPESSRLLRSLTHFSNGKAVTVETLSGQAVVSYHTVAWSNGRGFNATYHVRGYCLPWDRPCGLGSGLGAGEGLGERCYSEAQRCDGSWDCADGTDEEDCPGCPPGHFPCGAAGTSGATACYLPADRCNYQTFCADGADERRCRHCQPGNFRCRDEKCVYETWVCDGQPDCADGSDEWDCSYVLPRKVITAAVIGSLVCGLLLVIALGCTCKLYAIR
The description is as above.

For assay [3], the target named is T3, HA-tagged LRP10 (LDLR-related protein 10), wild type (human) (UniProt Q7Z4F1).
T3 sequence: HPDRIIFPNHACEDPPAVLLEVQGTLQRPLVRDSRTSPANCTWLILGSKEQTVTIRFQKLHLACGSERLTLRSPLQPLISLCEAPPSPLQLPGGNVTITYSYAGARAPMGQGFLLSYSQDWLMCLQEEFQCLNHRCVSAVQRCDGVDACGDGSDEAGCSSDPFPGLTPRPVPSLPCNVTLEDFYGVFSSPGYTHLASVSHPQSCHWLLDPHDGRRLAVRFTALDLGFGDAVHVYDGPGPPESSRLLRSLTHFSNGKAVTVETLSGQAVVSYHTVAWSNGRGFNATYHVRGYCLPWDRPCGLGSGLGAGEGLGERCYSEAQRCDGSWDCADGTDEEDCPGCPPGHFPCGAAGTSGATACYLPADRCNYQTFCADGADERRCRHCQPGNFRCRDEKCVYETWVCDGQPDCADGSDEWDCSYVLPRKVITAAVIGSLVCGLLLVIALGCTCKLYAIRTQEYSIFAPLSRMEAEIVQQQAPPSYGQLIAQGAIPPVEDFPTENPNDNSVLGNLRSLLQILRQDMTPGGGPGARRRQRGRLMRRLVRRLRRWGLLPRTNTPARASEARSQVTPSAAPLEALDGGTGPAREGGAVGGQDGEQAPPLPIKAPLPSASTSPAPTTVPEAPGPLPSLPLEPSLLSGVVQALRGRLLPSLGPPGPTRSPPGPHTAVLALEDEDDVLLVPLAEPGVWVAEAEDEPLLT
The assay is described as above.

The target of assay [4] is T3, HA-tagged LRP10 (LDLR-related protein 10), wild type (human). As to the kind of experiment: co-IP; HEK cells transfected separately with GFP, GFP-APP695 or LRP10-HA; lysates mixed after lysis, then precipitated with anti-HA; immunoblot with anti-HA and anti-GFP.

As for “untagged APP695 (from UniProt P05067-4 18-695)”, the binding entry in assay [1] was “binds weakly”; in assay [2], “binds”; in assay [3] it was “binds”.

“GFP-tagged APP695 (from UniProt P05067-4 18-695)”: the binding entry in assay [3] is on record as “binds”; in assay [4], “binds weakly”.
